Measurements: patent US8309353B2, “Method for induction of differentiation of ES cell” (Kumamoto University, priority 2007, dated 2012)
At least one compound was matched to its structure with a doubt left.

System: mouse ES cells (SK7)
Assay: Immunohistochemical analysis of AFP-, Pdx1/GFP- and Alb-expressing cells in mouse ES cells differentiated on M15 cells
Type: cell-based
Conditions: one factor added d4 to d8, KSR, glucose 2,000 mg/L (FIG. 2B)
Experimental: A previously reported SK7 cell line (mouse ES cells) having a Pdx1 promoter-derived GFP reporter-introduced gene was used (International Publication WO2006/126574). The SK7 ES cells were maintained on mouse embryonic fibroblasts (MEF), using a Glasgow minimum essential medium (Invitrogen) supplemented with 1,000 units/mL leukemia inhibitory factor (Chemicon), 15% KSR (knockout serum replacement; Gibco), 1% fetal bovine serum (FBS; Hyclone), 100 μM nonessential amino acid (Invitrogen), 2 mM L-glutamine (Invitrogen), 1 mM sodium pyruvate (Invitrogen), 50 units/mL penicillin, 50 μg/mL streptomycin (Invitrogen) and 100 μM β-mercaptoethanol.
Thereafter, the ES cells (the number of cells: 5,000 and 20,000, respectively) were inoculated on a 24-well or 6-well plate (Nunc) that had previously been coated with the M15 cells. […]
For whole mount immunocytochemical analysis, ES cells were inoculated on 24-well Thennanox coverslips (Nunc). […] In order to quantify the number of the Afp-expressing cells of FIG. 3B, the region of an Afp-positive stained image was analyzed using Lumina Vision program (Mitani Corporation).

Compound: C[C@@H]1C[C@H]2[C@@H]3CCC4=CC(=O)C=C[C@]4(C)[C@@]3(F)[C@@H](O)C[C@]2(C)[C@@]1(O)C(=O)CO [Dex, dexamethasone, reference compound]
- AFP expression, one factor added: promoted in the order of Dex>HGF>OsM
